# Source: the supplement of paper PMC8728848
# The other results are listed elsewhere or left out.
# What was measured:
# Assay in all cases: glycan array binding signal (z-score within array); higher = stronger binding
# Details in all cases: glycan notation: IUPAC condensed, linker removed; mutation: Q318A
# Gal(a1-6)Glc = molecular target: Gal(a1-6)Glc
# Summary of the method: (§1)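 Arrays were curated from the Consortium for Functional Glycomics database, 3228 in total, and kept only where the protein sequence was available. Binding is expressed as a within-array Z-score. This score was averaged across arrays of the same protein sequence at different concentrations or buffers and across linkers, and negative values can be read as non-binding.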
# Gal(b1-2)Gal = molecular target: Gal(b1-2)Gal
# Summary of the method: as §1
# Gal(b1-3)Gal = molecular target: Gal(b1-3)Gal
# Summary of the method: as §1
# Gal(b1-3)Gal(b1-4)GlcNAc = molecular target: Gal(b1-3)Gal(b1-4)GlcNAc
# Summary of the method: as §1
# Gal(b1-3)GalNAc = molecular target: Gal(b1-3)GalNAc
# Summary of the method: as §1
# [1] = molecular target: Gal(b1-3)GalNAc(a1-3)[Fuc(a1-2)]Gal(b1-4)Glc
# Summary of the method: as §1
# [2] = molecular target: Gal(b1-3)GalNAc(a1-3)[Fuc(a1-2)]Gal(b1-4)GlcNAc
# Summary of the method: as §1
# Gal(b1-3)GalNAc(b1-3)Gal = molecular target: Gal(b1-3)GalNAc(b1-3)Gal
# Summary of the method: as §1
# [3] = molecular target: Gal(b1-3)GalNAc(b1-3)Gal(a1-4)Gal(b1-4)Glc
# Summary of the method: as §1
# [4] = molecular target: Gal(b1-3)GalNAc(b1-4)Gal(b1-4)Glc
# Summary of the method: as §1
# [5] = molecular target: Gal(b1-3)GalNAc(b1-4)[Neu5Ac(a2-3)]Gal(b1-4)Glc
# Summary of the method: as §1
# Gal(b1-3)GlcNAc = molecular target: Gal(b1-3)GlcNAc
# Summary of the method: as §1
# [6] = molecular target: Gal(b1-3)GlcNAc(a1-3)Gal(b1-4)GlcNAc
# Summary of the method: as §1
# [7] = molecular target: Gal(b1-3)GlcNAc(a1-6)Gal(b1-4)GlcNAc
# Summary of the method: as §1
# Gal(b1-3)GlcNAc(b1-2)Man = molecular target: Gal(b1-3)GlcNAc(b1-2)Man
# Summary of the method: as §1
# [8] = molecular target: Gal(b1-3)GlcNAc(b1-2)Man(a1-3)[Gal(b1-3)GlcNAc(b1-2)Man(a1-6)]Man(b1-4)GlcNAc(b1-4)GlcNAc
# Summary of the method: as §1
# [9] = molecular target: Gal(b1-3)GlcNAc(b1-2)Man(a1-3)[Gal(b1-3)GlcNAc(b1-2)Man(a1-6)]Man(b1-4)GlcNAc(b1-4)[Fuc(a1-6)]GlcNAc
# Summary of the method: as §1
# [10] = molecular target: Gal(b1-3)GlcNAc(b1-2)Man(a1-3)[GlcNAc(b1-4)][Gal(b1-3)GlcNAc(b1-2)Man(a1-6)]Man(b1-4)GlcNAc(b1-4)GlcNAc
# Summary of the method: as §1
# [11] = molecular target: Gal(b1-3)GlcNAc(b1-2)[Gal(b1-3)GlcNAc(b1-6)]Man(a1-6)[Gal(b1-3)GlcNAc(b1-2)Man(a1-3)]Man(b1-4)GlcNAc(b1-4)GlcNAc
# Summary of the method: as §1
# [12] = molecular target: Gal(b1-3)GlcNAc(b1-3)Gal(b1-3)GlcNAc
# Summary of the method: as §1
# [13] = molecular target: Gal(b1-3)GlcNAc(b1-3)Gal(b1-4)Glc
# Summary of the method: as §1
# [14] = molecular target: Gal(b1-3)GlcNAc(b1-3)Gal(b1-4)GlcNAc
# Summary of the method: as §1
# [15] = molecular target: Gal(b1-3)GlcNAc(b1-3)Gal(b1-4)GlcNAc(b1-2)Man(a1-3)[Gal(b1-3)GlcNAc(b1-3)Gal(b1-4)GlcNAc(b1-2)Man(a1-6)]Man(b1-4)GlcNAc(b1-4)GlcNAc
# Summary of the method: as §1
# [16] = molecular target: Gal(b1-3)GlcNAc(b1-3)Gal(b1-4)GlcNAc(b1-2)[Gal(b1-3)GlcNAc(b1-3)Gal(b1-4)GlcNAc(b1-6)]Man(a1-6)[Gal(b1-3)GlcNAc(b1-3)Gal(b1-4)GlcNAc(b1-2)Man(a1-3)]Man(b1-4)GlcNAc(b1-4)[Fuc(a1-6)]GlcNAc
# Summary of the method: as §1
# [17] = molecular target: Gal(b1-3)GlcNAc(b1-3)Gal(b1-4)GlcNAc(b1-3)Gal(b1-4)GlcNAc(b1-2)[Gal(b1-3)GlcNAc(b1-3)Gal(b1-4)GlcNAc(b1-3)Gal(b1-4)GlcNAc(b1-6)]Man(a1-6)[Gal(b1-3)GlcNAc(b1-3)Gal(b1-4)GlcNAc(b1-3)Gal(b1-4)GlcNAc(b1-2)Man(a1-3)]Man(b1-4)GlcNAc(b1-4)[Fuc(a1-6)]GlcNAc
# Summary of the method: as §1
# [18] = molecular target: Gal(b1-3)GlcNAc(b1-3)Gal(b1-4)GlcNAc(b1-6)[Gal(b1-3)GlcNAc(b1-3)]Gal(b1-4)Glc
# Summary of the method: as §1
# [19] = molecular target: Gal(b1-3)GlcNAc(b1-3)Gal(b1-4)[Fuc(a1-3)]GlcNAc
# Summary of the method: as §1
# [20] = molecular target: Gal(b1-3)GlcNAc(b1-3)Gal(b1-4)[Fuc(a1-3)]GlcNAc(b1-6)[Gal(b1-3)GlcNAc(b1-3)]Gal(b1-4)Glc
# Summary of the method: as §1
# [21] = molecular target: Gal(b1-3)GlcNAc(b1-3)GalNAc
# Summary of the method: as §1
# [22] = molecular target: Gal(b1-3)GlcNAc(b1-6)Gal(b1-4)GlcNAc
# Summary of the method: as §1
# [23] = molecular target: Gal(b1-3)GlcNAc(b1-6)GalNAc
# Summary of the method: as §1
# [24] = molecular target: Gal(b1-3)GlcNAc(b1-6)[Gal(b1-3)]GalNAc
# Summary of the method: as §1
# Gal(b1-3)GlcNAc6S = molecular target: Gal(b1-3)GlcNAc6S
# Summary of the method: as §1
# [25] = molecular target: Gal(b1-3)[Fuc(a1-4)]GlcNAc
# Summary of the method: as §1
# [26] = molecular target: Gal(b1-3)[Fuc(a1-4)]GlcNAc(b1-2)Man
# Summary of the method: as §1
# [27] = molecular target: Gal(b1-3)[Fuc(a1-4)]GlcNAc(b1-2)Man(a1-3)[Gal(b1-3)[Fuc(a1-4)]GlcNAc(b1-2)Man(a1-6)]Man(b1-4)GlcNAc(b1-4)[Fuc(a1-6)]GlcNAc
# Summary of the method: as §1
# [28] = molecular target: Gal(b1-3)[Fuc(a1-4)]GlcNAc(b1-3)Gal(b1-3)[Fuc(a1-4)]GlcNAc
# Summary of the method: as §1
# [29] = molecular target: Gal(b1-3)[Fuc(a1-4)]GlcNAc(b1-3)Gal(b1-4)[Fuc(a1-3)]GlcNAc
# Summary of the method: as §1
# [30] = molecular target: Gal(b1-3)[Fuc(a1-4)]GlcNAc(b1-6)GalNAc
# Summary of the method: as §1
# [31] = molecular target: Gal(b1-3)[GlcNAc(b1-6)]GalNAc
# Summary of the method: as §1
# [32] = molecular target: Gal(b1-3)[Neu5Ac(a2-6)]GalNAc
# Summary of the method: as §1
# [33] = molecular target: Gal(b1-3)[Neu5Ac(a2-6)]GlcNAc(b1-4)Gal(b1-4)Glc
# Summary of the method: as §1
# [34] = molecular target: Gal(b1-3)[Neu5Ac(b2-6)]GalNAc
# Summary of the method: as §1
# Gal(b1-4)Gal = molecular target: Gal(b1-4)Gal
# Summary of the method: as §1
# [35] = molecular target: Gal(b1-4)GalNAc(a1-3)[Fuc(a1-2)]Gal(b1-4)GlcNAc
# Summary of the method: as §1
binder,measurement,setting,value
"SUN4 (Saccharomyces cerevisiae), P53616 (protein) MGSSHHHHHHSSGLVPRGSHNGSIYGDLADFSGPYEKFEDGTIPCGQFPSGQGVIPISWLDEGGWSGVENTDTSTGGSCKEGSYCSYACQPGMSKTQWPSDQPSDGRSIGGLLCKDGYLYRSNTDTDYLCEWGVDAAYVVSELSNDVAICRTDYPGTENMVIPTYVQAGDSLPLTVVDQDTYYTWQGLKTSAAYYVNNAGISVEDACVWGSSSSGVGNWAPLNFGAGSSDGVAYLSLIPNPNNGNALNFNVKIVAADDSSTVNGECIYENGSFSGGSDGCTVSVTAGKAKFVLYN",glycan array binding signal (z-score),Gal(a1-6)Glc,-1.02
same,glycan array binding signal (z-score),Gal(b1-2)Gal,-0.035
same,glycan array binding signal (z-score),Gal(b1-3)Gal,-0.251
same,glycan array binding signal (z-score),Gal(b1-3)Gal(b1-4)GlcNAc,-1.08
same,glycan array binding signal (z-score),Gal(b1-3)GalNAc,0.173
same,glycan array binding signal (z-score),[1],-0.359
same,glycan array binding signal (z-score),[2],-0.683
same,glycan array binding signal (z-score),Gal(b1-3)GalNAc(b1-3)Gal,-0.741
same,glycan array binding signal (z-score),[3],-0.26
same,glycan array binding signal (z-score),[4],-0.46
same,glycan array binding signal (z-score),[5],-0.545
same,glycan array binding signal (z-score),Gal(b1-3)GlcNAc,0.3
same,glycan array binding signal (z-score),[6],1.04
same,glycan array binding signal (z-score),[7],-0.902
same,glycan array binding signal (z-score),Gal(b1-3)GlcNAc(b1-2)Man,-0.283
same,glycan array binding signal (z-score),[8],-1.04
same,glycan array binding signal (z-score),[9],0.772
same,glycan array binding signal (z-score),[10],0.24
same,glycan array binding signal (z-score),[11],0.517
same,glycan array binding signal (z-score),[12],0.876
same,glycan array binding signal (z-score),[13],0.001
same,glycan array binding signal (z-score),[14],-0.119
same,glycan array binding signal (z-score),[15],1.14
same,glycan array binding signal (z-score),[16],0.027
same,glycan array binding signal (z-score),[17],2.21
same,glycan array binding signal (z-score),[18],-0.223
same,glycan array binding signal (z-score),[19],-0.128
same,glycan array binding signal (z-score),[20],0.399
same,glycan array binding signal (z-score),[21],1.45
same,glycan array binding signal (z-score),[22],-0.212
same,glycan array binding signal (z-score),[23],0.162
same,glycan array binding signal (z-score),[24],-0.256
same,glycan array binding signal (z-score),Gal(b1-3)GlcNAc6S,-0.51
same,glycan array binding signal (z-score),[25],-0.571
same,glycan array binding signal (z-score),[26],-0.021
same,glycan array binding signal (z-score),[27],0.721
same,glycan array binding signal (z-score),[28],-0.237
same,glycan array binding signal (z-score),[29],-0.954
same,glycan array binding signal (z-score),[30],-0.117
same,glycan array binding signal (z-score),[31],-0.486
same,glycan array binding signal (z-score),[32],-0.282
same,glycan array binding signal (z-score),[33],-0.107
same,glycan array binding signal (z-score),[34],0.198
same,glycan array binding signal (z-score),Gal(b1-4)Gal,-0.573
same,glycan array binding signal (z-score),[35],0.701

# Reformatted with bars between the fields: part of the list above.
binder | measurement | setting | value
SUN4 (Saccharomyces cerevisiae), P53616 (protein) MGSSHHHHHHSSGLVPRGSHNGSIYGDLADFSGPYEKFEDGTIPCGQFPSGQGVIPISWLDEGGWSGVENTDTSTGGSCKEGSYCSYACQPGMSKTQWPSDQPSDGRSIGGLLCKDGYLYRSNTDTDYLCEWGVDAAYVVSELSNDVAICRTDYPGTENMVIPTYVQAGDSLPLTVVDQDTYYTWQGLKTSAAYYVNNAGISVEDACVWGSSSSGVGNWAPLNFGAGSSDGVAYLSLIPNPNNGNALNFNVKIVAADDSSTVNGECIYENGSFSGGSDGCTVSVTAGKAKFVLYN | glycan array binding signal (z-score) | [9] | 0.772
same | glycan array binding signal (z-score) | [33] | -0.107
